# In article doi:10.1101/661488:
# Target: AMPKα (α catalytic subunit of AMPK) (mouse (endogenous in DRG))
# Experiment: co-IP
row,Binder,binding
1,"PSMD7 (proteasomal protein) (protein, UniProt P26516 1-321) MPELAVQKVVVHPLVLLSVVDHFNRIGKVGNQKRVVGVLLGSWQKKVLDVSNSFAVPFDEDDKDDSVWFLDHDYLENMYGMFKKVNARERIVGWYHTGPKLHKNDIAINELMKRYCPNSVLVIIDVKPKDLGLPTEAYISVEEVHDDGTPTSKTFEHVTSEIGAEEAEEVGVEHLLRDIKDTTVGTLSQRITNQVHGLKGLNSKLLDIRSYLEKVASGKLPINHQIIYQLQDVFNLLPDASLQEFVKAFYLKTNDQMVVVYLASLIRSVVALHNLINNKIANRDAEKKEGQEKEESKKERKDDKEKEKSDAAKKEEKKEKK",binds
2,"PSMD13 (proteasomal protein) (protein, UniProt Q9WVJ2 1-376) MKDVPAFLQQSQSSGPGQAAVWHRLEELYTKKLWHQLTLEVLDFVQDPCFAQGDGLIKLYENFISEFEHRVNPLSLVEIILHVVRQMTDPNVALTFLEKTREKVKSSDEAVILCKTAIGALKLNIGDLQATKETIEDVEEMLNNLPGVTSVHSRFYDLSSKYYQTIGNHASYYKDALRFLGCVDIKDLPVSEQQERAFTLGLAGLLGEGVFNFGELLMHPVLESLRDTDRQWLIDTLYAFNSGAVDRFQTLKCAWGQQPDLAANEAQLLRKIQLLCLMEMTFTRPANHRQLTFEEIAKSAKITVNKVELLVMKALSVGLVRGSIDEVDKRVHMTWVQPRVLDLQQIKGMKDRLELWCTDVKSMEMLVEHQAQDILT",binds
3,"GPHN (postsynaptic protein) (protein, UniProt Q8BUV3 1-769) MATEGMILTNHDHQIRVGVLTVSDSCFRNLAEDRSGINLKDLVQDPSLLGGTISAYKIVPDEIEEIKETLIDWCDEKELNLILTTGGTGFAPRDVTPEATKEVIEREAPGMALAMLMGSLNVTPLGMLSRPVCGIRGKTLIINLPGSKKGSQECFQFILPALPHAIDLLRDAIVKVKEVHDELEDLPSPPPPLSPPPTTSPHKQTEDKGVQCEEEEEEKKDSGVASTEDSSSSHITAAALAAKIPDSIISRGVQVLPRDTASLSTTPSESPRAQATSRLSTASCPTPKQIRRPDESKGVASRVGSLKARLPSCSSTYSVSEVQSRCSSKENILRASHSAVDITKVARRHRMSPFPLTSMDKAFITVLEMTPVLGTEIINYRDGMGRVLAQDVYAKDNLPPFPASVKDGYAVRAADGPGDRFIIGESQAGEQPTQTVMPGQVMRVTTGAPIPCGADAVVQVEDTELIRESDDGTEELEVRILVQARPGQDIRPIGHDIKRGECVLAKGTHMGPSEIGLLATVGVTEVEVNKFPVVAVMSTGNELLNPEDDLLPGKIRDSNRSTLLATIQEHGYPTINLGIVGDNPDDLLNALNEGISRADVIITSGGVSMGEKDYLKQVLDIDLHAQIHFGRVFMKPGLPTTFATLDIDGVRKIIFALPGNPVSAVVTCNLFVVPALRKMQGILDPRPTIIKARLSCDVKLDPRPEYHRCILTWHHQEPLPWAQSTGNQMSSRLMSMRSANGLLMLPPKTEQYVELHKGEVVDVMVIGRL",binds

# No constants are given. Whether binding was seen depends on the method and setting. In cells and extracts the contact can be indirect. A result given as binding can be weak or reduced; the word gives no strength.
